According to patent US20040170614A1:
These are yes or no findings as the source states them, for the method shown. Binding seen in cells or lysates may run through a third protein. Some binding calls cover weakened binding; strength is not graded here.

Protein sequences, listed by entry. Tags and fused reporters are not part of them. Lines headed by an entry give the natural chain unless they say otherwise; changes in a name come on top.
UniProt P25942: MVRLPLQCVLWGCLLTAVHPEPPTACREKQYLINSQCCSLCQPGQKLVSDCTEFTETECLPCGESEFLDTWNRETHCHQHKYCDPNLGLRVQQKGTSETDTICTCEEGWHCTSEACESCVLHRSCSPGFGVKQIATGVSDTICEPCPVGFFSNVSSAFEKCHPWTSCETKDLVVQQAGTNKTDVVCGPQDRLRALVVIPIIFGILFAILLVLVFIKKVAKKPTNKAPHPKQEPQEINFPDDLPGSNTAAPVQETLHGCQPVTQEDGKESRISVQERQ
UniProt P27512: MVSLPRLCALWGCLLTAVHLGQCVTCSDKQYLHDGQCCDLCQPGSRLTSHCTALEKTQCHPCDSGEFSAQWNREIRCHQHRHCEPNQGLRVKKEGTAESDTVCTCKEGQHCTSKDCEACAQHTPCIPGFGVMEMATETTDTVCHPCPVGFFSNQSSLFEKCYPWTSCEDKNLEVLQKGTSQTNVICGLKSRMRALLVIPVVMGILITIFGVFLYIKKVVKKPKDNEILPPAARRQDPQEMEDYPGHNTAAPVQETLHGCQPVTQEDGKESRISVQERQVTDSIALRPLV

Target: human-mouse hybrid CD40 (hmCD40) (human; mouse) (UniProt P25942+P27512)
Test: co-immunoprecipitation with anti-hCD40 from membrane microdomains of hCD154-stimulated CH12.LX cells, Western blot for TRAF6

binding: binds
B1: TRAF6 (protein, mouse, UniProt P70196 1-530, looked up)
chain: MSLLNCENSCGSSQSSSDCCAAMAASCSAAVKDDSVSGSASTGNLSSSFMEEIQGYDVEFDPPLESKYECPICLMALREAVQTPCGHRFCKACIIKSIRDAGHKCPVDNEILLENQLFPDNFAKREILSLTVKCPNKGCLQKMELRHLEDHQVHCEFALVNCPQCQRPFQKCQVNTHIIEDCPRRQVSCVNCAVSMAYEEKEIHDQSCPLANIICEYCGTILIREQMPNHYDLDCPTAPIPCTFSVFGCHEKMQRNHLARHLQENTQLHMRLLAQAVHNVNLALRPCDAASPSRGCRPEDPNYEETIKQLESRLVRQDHQIRELTAKMETQSMYVGELKRTIRTLEDKVAEMEAQQCNGIYIWKIGNFGMHLKSQEEERPVVIHSPGFYTGRPGYKLCMRLHLQLPTAQRCANYISLFVHTMQGEYDSHLPWPFQGTIRLTILDQSEALIRQNHEEVMDAKPELLAFQRPTIPRNPKGFGYVTFMHLEALRQGTFIKDDTLLVRCEVSTRFDMGGLRKEGFQPRSTDAGV
